Laboratory results published in the supplement of paper PMC10849652.
The list shows a part of the results.

Chains of the proteins cited; added tags and fusions are not shown. Lines headed by an entry give the natural chain unless they say otherwise; changes in a name come on top.
UniProt Q8N831: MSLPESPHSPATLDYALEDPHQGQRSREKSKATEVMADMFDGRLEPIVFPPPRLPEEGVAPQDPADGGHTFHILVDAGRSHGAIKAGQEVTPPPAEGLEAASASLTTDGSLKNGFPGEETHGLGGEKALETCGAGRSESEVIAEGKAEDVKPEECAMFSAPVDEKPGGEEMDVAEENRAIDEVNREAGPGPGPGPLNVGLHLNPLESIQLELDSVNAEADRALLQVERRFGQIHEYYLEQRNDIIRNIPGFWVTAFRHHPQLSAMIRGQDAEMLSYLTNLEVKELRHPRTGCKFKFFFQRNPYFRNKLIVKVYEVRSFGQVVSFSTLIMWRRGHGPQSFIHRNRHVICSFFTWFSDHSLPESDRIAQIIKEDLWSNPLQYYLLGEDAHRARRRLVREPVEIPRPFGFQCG
UniProt Q8IYL2: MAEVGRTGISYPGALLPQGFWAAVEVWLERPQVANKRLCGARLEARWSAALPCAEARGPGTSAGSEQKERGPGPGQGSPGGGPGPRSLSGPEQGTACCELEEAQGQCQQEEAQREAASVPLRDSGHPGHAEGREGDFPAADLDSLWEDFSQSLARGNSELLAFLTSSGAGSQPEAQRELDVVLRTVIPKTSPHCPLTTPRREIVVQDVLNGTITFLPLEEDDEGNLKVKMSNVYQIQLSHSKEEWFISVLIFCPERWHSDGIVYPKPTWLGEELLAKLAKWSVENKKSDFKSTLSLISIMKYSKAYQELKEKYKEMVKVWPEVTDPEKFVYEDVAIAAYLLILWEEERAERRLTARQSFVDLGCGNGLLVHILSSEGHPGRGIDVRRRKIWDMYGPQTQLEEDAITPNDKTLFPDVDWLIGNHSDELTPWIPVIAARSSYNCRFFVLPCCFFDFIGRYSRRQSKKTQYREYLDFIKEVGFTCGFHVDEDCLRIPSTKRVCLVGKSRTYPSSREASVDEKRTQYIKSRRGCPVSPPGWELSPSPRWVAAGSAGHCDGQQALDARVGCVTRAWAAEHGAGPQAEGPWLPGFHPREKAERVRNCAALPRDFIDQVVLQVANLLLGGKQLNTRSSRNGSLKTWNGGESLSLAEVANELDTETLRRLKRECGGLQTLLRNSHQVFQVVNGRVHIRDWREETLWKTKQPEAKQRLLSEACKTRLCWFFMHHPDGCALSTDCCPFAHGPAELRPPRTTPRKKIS
UniProt O75382: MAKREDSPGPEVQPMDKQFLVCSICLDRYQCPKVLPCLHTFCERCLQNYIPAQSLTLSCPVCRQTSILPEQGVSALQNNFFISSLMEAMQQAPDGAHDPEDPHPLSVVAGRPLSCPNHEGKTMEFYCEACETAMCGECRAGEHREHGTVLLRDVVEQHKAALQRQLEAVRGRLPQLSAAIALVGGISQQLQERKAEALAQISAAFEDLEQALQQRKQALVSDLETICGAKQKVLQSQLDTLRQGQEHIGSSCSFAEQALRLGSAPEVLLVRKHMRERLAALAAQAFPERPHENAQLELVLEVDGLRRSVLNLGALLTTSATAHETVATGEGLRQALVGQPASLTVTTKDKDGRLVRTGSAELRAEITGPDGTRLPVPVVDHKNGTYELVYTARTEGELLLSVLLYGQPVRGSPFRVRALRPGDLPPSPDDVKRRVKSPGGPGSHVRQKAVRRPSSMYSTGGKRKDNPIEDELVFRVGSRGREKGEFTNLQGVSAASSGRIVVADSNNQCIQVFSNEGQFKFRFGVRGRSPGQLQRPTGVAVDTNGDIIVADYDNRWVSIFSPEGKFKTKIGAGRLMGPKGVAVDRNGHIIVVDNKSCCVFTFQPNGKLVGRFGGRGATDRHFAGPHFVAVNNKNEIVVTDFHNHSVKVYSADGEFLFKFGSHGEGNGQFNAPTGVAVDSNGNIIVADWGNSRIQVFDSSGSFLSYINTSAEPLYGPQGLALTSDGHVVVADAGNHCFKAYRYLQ
UniProt O14717: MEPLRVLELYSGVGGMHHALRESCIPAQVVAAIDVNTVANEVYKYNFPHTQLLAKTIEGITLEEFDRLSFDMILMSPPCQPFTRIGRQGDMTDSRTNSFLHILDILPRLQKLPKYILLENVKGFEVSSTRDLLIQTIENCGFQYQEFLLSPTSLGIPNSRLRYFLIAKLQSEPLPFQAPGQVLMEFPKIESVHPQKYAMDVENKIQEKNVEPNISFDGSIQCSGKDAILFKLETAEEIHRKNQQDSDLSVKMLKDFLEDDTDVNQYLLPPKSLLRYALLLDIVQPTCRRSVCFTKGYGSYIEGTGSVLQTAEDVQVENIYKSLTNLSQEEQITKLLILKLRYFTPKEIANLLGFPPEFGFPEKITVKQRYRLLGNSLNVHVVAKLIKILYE
UniProt Q629K1: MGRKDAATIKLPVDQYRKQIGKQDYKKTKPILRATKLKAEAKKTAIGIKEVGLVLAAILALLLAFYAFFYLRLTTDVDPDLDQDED
UniProt Q15714: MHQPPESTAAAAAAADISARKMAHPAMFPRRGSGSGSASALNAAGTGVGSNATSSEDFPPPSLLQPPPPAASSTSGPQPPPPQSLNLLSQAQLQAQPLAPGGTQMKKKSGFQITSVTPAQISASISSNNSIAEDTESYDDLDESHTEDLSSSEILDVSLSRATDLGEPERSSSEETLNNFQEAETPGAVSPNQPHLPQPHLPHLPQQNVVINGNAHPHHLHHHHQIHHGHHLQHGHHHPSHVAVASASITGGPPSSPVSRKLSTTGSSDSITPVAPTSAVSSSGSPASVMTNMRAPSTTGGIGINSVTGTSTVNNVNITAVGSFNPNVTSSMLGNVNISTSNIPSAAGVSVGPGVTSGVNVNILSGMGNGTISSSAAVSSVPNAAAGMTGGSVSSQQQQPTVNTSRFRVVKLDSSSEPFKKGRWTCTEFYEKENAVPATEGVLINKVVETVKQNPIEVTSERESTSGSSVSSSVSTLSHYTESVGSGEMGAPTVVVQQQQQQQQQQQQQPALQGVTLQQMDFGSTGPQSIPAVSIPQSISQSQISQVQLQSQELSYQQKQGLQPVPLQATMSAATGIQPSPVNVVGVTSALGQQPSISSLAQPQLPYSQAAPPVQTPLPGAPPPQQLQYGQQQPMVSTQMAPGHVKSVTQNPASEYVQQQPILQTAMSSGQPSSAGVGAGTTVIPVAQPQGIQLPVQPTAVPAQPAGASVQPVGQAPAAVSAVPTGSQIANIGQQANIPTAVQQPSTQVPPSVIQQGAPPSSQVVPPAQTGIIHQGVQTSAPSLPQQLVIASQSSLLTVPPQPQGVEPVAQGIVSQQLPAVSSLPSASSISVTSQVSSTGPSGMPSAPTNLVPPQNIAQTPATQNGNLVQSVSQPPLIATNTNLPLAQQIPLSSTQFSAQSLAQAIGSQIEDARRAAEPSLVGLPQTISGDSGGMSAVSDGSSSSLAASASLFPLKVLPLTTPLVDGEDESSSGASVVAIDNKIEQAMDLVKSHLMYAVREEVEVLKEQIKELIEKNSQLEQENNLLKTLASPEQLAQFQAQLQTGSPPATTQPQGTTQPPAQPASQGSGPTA
UniProt Q13077: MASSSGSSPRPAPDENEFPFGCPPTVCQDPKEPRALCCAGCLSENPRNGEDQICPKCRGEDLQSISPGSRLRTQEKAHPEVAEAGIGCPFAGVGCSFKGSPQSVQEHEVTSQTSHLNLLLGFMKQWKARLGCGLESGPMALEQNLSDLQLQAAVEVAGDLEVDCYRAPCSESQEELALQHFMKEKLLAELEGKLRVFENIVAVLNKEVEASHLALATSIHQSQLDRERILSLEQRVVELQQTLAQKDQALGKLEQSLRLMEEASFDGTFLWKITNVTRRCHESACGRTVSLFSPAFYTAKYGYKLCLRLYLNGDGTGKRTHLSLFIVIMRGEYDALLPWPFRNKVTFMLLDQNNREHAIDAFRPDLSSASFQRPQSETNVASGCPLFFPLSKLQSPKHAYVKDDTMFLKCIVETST
UniProt Q6IQ55, whole entry, looked up: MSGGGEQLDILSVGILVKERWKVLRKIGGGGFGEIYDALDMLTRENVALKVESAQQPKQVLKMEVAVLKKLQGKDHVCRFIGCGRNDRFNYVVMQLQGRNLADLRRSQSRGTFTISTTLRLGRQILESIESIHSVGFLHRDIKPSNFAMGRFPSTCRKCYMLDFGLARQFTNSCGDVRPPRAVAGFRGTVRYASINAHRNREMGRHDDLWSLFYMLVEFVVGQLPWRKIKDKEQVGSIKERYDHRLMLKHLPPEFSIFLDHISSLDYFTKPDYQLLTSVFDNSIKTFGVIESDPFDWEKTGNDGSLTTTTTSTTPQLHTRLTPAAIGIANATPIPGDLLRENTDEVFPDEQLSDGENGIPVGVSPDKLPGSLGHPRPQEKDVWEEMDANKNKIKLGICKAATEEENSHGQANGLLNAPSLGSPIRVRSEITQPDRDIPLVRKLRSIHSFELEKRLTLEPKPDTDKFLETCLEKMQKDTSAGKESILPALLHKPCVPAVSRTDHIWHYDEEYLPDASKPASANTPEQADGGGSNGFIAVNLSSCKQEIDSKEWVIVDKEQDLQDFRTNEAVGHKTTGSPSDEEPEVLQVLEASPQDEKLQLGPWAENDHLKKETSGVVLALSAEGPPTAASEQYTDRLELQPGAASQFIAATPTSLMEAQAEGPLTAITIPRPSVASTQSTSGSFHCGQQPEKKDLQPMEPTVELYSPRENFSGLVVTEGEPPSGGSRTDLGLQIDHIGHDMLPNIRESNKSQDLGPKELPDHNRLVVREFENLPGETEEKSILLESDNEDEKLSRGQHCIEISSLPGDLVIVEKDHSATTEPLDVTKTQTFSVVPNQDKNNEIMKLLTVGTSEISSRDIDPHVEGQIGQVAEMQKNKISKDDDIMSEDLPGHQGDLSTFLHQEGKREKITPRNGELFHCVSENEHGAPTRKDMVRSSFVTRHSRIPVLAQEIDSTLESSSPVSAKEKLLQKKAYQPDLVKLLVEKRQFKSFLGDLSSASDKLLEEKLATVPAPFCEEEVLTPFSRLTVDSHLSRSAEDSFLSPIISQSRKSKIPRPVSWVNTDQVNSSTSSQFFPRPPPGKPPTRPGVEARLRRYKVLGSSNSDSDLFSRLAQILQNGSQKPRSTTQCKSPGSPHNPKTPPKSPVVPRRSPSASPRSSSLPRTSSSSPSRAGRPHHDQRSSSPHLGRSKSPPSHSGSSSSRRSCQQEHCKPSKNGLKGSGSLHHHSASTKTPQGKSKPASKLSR
UniProt Q9BU70: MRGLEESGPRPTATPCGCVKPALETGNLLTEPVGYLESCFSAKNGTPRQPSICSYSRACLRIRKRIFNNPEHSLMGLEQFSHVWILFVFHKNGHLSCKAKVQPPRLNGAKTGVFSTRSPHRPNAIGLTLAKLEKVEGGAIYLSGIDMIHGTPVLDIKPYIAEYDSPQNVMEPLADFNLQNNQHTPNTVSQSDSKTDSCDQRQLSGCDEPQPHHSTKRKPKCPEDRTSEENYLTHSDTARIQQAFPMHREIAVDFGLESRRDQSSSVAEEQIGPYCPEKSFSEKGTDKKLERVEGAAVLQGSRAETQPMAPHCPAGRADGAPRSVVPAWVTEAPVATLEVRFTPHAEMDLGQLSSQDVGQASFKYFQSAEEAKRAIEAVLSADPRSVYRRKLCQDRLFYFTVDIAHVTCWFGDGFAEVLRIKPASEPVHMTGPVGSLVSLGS
UniProt O00463: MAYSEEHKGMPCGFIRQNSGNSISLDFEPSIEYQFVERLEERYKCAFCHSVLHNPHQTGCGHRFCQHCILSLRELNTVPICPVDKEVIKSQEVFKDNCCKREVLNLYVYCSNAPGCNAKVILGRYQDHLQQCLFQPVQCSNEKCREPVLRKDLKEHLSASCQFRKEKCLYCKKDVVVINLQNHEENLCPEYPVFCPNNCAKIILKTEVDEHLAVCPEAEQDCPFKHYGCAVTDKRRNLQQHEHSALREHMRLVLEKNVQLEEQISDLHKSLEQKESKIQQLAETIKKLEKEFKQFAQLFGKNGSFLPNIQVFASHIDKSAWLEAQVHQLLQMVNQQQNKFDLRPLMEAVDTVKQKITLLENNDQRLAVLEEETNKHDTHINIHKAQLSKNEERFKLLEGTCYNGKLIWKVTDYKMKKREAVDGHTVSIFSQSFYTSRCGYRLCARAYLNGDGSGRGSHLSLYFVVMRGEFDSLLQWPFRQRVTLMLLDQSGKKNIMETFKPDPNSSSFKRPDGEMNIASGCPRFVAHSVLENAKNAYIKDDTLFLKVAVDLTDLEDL
UniProt Q12999: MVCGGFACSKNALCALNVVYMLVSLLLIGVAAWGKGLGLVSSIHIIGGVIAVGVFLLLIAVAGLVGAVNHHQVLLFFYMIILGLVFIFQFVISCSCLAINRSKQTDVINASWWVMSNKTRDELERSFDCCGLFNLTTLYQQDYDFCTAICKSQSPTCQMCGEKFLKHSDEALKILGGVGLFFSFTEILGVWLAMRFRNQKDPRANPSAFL

Columns and labels:
Experiment in all cases: log2 fold change, soluble protein after heating vs DMSO (PISA); higher = thermal stabilisation; K562 lysate, 10 uM; active = over 0.2 and 3.5 SD of the protein, either way, in both replicates (recomputed)
alvocidib = compound: CN1CC[C@H](c2c(O)cc(O)c3c(=O)cc(-c4ccccc4Cl)oc23)[C@H](O)C1 [alvocidib]
Summary of the method: (§1)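 Log-two fold change in thermal stability relative to solvent controls is reported from duplicates. For each sample, crude K562 extract from dounce-homogenised pellets in PBS pH 7.4 with 1 mM MgCl2, at 1 mg/mL protein, was treated with 10 μM compound for 30 min. Aliquots heated for 3 min across 48°C-58°C were pooled, brought to 0.5% NP-40 at 4°C and cleared at 21,000xg for 90 min. The supernatant was quantified by TMTpro 16plex LC-MS/MS with channel sums equalised.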

Tubastatin A = compound: CN1CCc2c(c3ccccc3n2Cc2ccc(C(=O)NO)cc2)C1 [Tubastatin A]
Summary of the method: as §1

[1] = compound: CNC(=O)C1=CC=CC=C1NC2=NC(=NC=C2Cl)NC3=C(C=C(C=C3)N4CCOCC4)OC
Summary of the method: as §1

defactinib = compound: CNC(=O)c1ccc(Nc2ncc(C(F)(F)F)c(NCc3nccnc3N(C)S(C)(=O)=O)n2)cc1 [defactinib]
Summary of the method: as §1

[2] = compound: CNc1nc(-c2ccc3c(N)n[nH]c3c2)cc(N2C[C@@H](C(=O)NC3CCCCC3)CC[C@H]2C)n1
Summary of the method: as §1

encorafenib = compound: COC(=O)N[C@@H](C)CNc1nccc(-c2cn(C(C)C)nc2-c2cc(Cl)cc(NS(C)(=O)=O)c2F)n1 [encorafenib]
Summary of the method: as §1

[3] = compound: COC(=O)[C@H](CCSC)NC(=O)C1=C(C=C(C=C1)NC[C@H](CS)N)C2=CC=CC=C2
Summary of the method: as §1

alisertib = compound: COc1cc(Nc2ncc3c(n2)-c2ccc(Cl)cc2C(c2c(F)cccc2OC)=NC3)ccc1C(=O)O [alisertib]
Summary of the method: as §1

[4] = compound: COc1cc2nc(-c3cc(F)ccc3O)nc(N[C@@H]3CNC[C@H]3C(C)(C)O)c2cc1OC
Summary of the method: as §1

gefitinib = compound: COc1cc2ncnc(Nc3ccc(F)c(Cl)c3)c2cc1OCCCN1CCOCC1 [gefitinib]
Summary of the method: as §1

lapatinib = compound: CS(=O)(=O)CCNCc1ccc(-c2ccc3ncnc(Nc4ccc(OCc5cccc(F)c5)c(Cl)c4)c3c2)o1 [lapatinib]
Summary of the method: as §1

pictilisib = compound: CS(=O)(=O)N1CCN(Cc2cc3nc(-c4cccc5[nH]ncc45)nc(N4CCOCC4)c3s2)CC1 [pictilisib]
Summary of the method: as §1

crizotinib = compound: C[C@@H](Oc1cc(-c2cnn(C3CCNCC3)c2)cnc1N)c1c(Cl)ccc(F)c1Cl [crizotinib]
Summary of the method: as §1

[5] = compound: C[C@H](C1=CC=C(C=C1)C(=O)NC2=C3C=CNC3=NC=C2)N
Summary of the method: as §1

duvelisib = compound: C[C@H](Nc1ncnc2nc[nH]c12)c1cc2cccc(Cl)c2c(=O)n1-c1ccccc1 [duvelisib]
Summary of the method: as §1

gandotinib = compound: Cc1cc(Nc2cc(CN3CCOCC3)c3nc(C)c(Cc4ccc(Cl)cc4F)n3n2)n[nH]1 [gandotinib]
Summary of the method: as §1

tozasertib = compound: Cc1cc(Nc2cc(N3CCN(C)CC3)nc(Sc3ccc(NC(=O)C4CC4)cc3)n2)n[nH]1 [tozasertib]
Summary of the method: as §1

doramapimod = compound: Cc1ccc(-n2nc(C(C)(C)C)cc2NC(=O)Nc2ccc(OCCN3CCOCC3)c3ccccc23)cc1 [doramapimod]
Summary of the method: as §1

bafetinib = compound: Cc1ccc(NC(=O)c2ccc(CN3CC[C@H](N(C)C)C3)c(C(F)(F)F)c2)cc1Nc1nccc(-c2cncnc2)n1 [bafetinib]
Summary of the method: as §1

[6] = compound: Cc1cccc(CC(=O)N2CCc3c2ccc(-c2cn(C)c4ncnc(N)c24)c3F)n1
Summary of the method: as §1

Measured: log2 fold change

TRIT1 (UniProt Q9H3H1)
inactive: alvocidib 0.043 | Tubastatin A -0.066 | [1] 0.035 | defactinib -0.007 | [2] -0.024 | encorafenib 0.003 | [3] 0.034 | alisertib -0.074 | [4] 0.026 | gefitinib 0.05 | lapatinib -0.053 | pictilisib 0.007 | crizotinib -0.009 | [5] -0.009 | duvelisib 0.017 | gandotinib -0.176 | tozasertib -0.003 | doramapimod 0.025 | bafetinib 0.091 | [6] -0.005

TRMT11 (UniProt Q7Z4G4)
inactive: alvocidib -0.008 | Tubastatin A 0.008 | [1] 0.081 | defactinib 0.066 | [2] -0.013 | encorafenib -0.022 | [3] -0.06 | alisertib -0.018 | [4] -0.02 | gefitinib 0.013 | lapatinib -0.007 | pictilisib -0.028 | crizotinib 0.018 | [5] 0.006 | duvelisib -0.008 | gandotinib 0 | tozasertib 0.011 | doramapimod -0.006 | bafetinib 0.032 | [6] -0.021

TTC27 (UniProt Q6P3X3)
inactive: alvocidib 0.012 | Tubastatin A -0.148 | [1] -0.049 | defactinib 0.023 | [2] -0.007 | encorafenib 0.028 | [3] 0.057 | alisertib 0.027 | [4] 0.012 | gefitinib 0.02 | lapatinib -0.01 | pictilisib 0.005 | crizotinib -0.041 | [5] -0.033 | duvelisib 0.04 | gandotinib -0.129 | tozasertib 0.004 | doramapimod 0.048 | bafetinib -0.066 | [6] 0.04

TSPYL6 (UniProt Q8N831)
inactive: Tubastatin A 0.06 | [1] -0.03 | [2] -0.095 | duvelisib 0.017

TRMT44 (UniProt Q8IYL2)
inactive: crizotinib -0.14 | doramapimod 0.016

TTC13 (UniProt Q8NBP0)
inactive: Tubastatin A 0.013 | defactinib -0.225 | [4] 0.275 | lapatinib 0.03 | pictilisib -0.087 | crizotinib -0.08 | doramapimod 0.096 | bafetinib -0.263

TRIM41 (UniProt Q8WV44)
inactive: alvocidib 0.065 | defactinib -0.035 | [2] -0.126 | encorafenib -0.02 | [3] 0.098 | [4] 0.001 | lapatinib -0.119 | crizotinib -0.089 | [5] -0.029 | duvelisib -0.006 | gandotinib -0.114 | tozasertib 0.089 | doramapimod 0.049 | [6] -0.07

TRIM3 (UniProt O75382)
inactive: [1] 0.06 | defactinib -0.095 | encorafenib 0.034 | [3] 0.041 | [4] 0.069 | lapatinib 0.009 | tozasertib -0.056

TTC37 (UniProt Q6PGP7)
inactive: Tubastatin A 0.072 | [1] -0.13 | defactinib -0.061 | [2] 0.185 | alisertib 0.032 | [4] 0.043 | gefitinib 0.081 | lapatinib -0.157 | pictilisib -0.03 | crizotinib -0.202 | duvelisib 0.096 | doramapimod 0.069 | bafetinib -0.26

TRDMT1 (UniProt O14717)
inactive: Tubastatin A 0.071 | [1] -0.06 | defactinib 0.009 | [2] -0.047 | encorafenib 0.181 | [3] -0.168 | alisertib 0.081 | [4] 0.128 | gefitinib -0.041 | lapatinib -0.22 | crizotinib -0.003 | duvelisib 0.152 | tozasertib -0.098 | doramapimod 0.028

TRIQK (UniProt Q629K1)
inactive: Tubastatin A -0.014 | [1] 0.075 | [2] -0.125 | encorafenib -0.137 | [3] -0.489 | [4] -0.065 | lapatinib -0.009 | pictilisib 0.011 | crizotinib 0.009 | duvelisib -0.293 | tozasertib 0.12 | doramapimod -0.038 | bafetinib -0.033

TRIM37 (UniProt O94972)
inactive: Tubastatin A -0.205 | [1] -0.081 | [2] 0.195 | encorafenib 0.161 | [3] 0.036 | crizotinib -0.007 | duvelisib -0.096 | tozasertib 0.105 | doramapimod -0.091

TTC28 (UniProt Q96AY4)
inactive: [1] 0.045 | defactinib 0.132 | alisertib 0.058 | gefitinib 0.215 | pictilisib -0.324 | crizotinib -0.093 | doramapimod 0.096 | bafetinib 0.041

TSC22D1 isoform 2 (UniProt Q15714)
inactive: Tubastatin A -0.001 | encorafenib 0.099 | [3] -0.439 | crizotinib -0.021 | tozasertib -0.047 | doramapimod 0.027

TRAF1 (UniProt Q13077)
inactive: Tubastatin A 0.079

TRAPPC2L (UniProt H3BQQ8)
inactive: pictilisib 0.017 | bafetinib -0.058

TTLL4 (UniProt Q14679)
inactive: Tubastatin A -0.193 | alisertib -0.059 | gefitinib 0.01

TTBK2 (UniProt Q6IQ55)
inactive: [1] 0.094 | encorafenib 0.008 | [3] -0.118 | crizotinib -0.111 | tozasertib 0.091 | doramapimod 0.09

TTC7A isoform 4 (UniProt Q9ULT0)
inactive: alisertib 0.085 | gefitinib 0.043

TRIM67 (UniProt Q6ZTA4)
inactive: Tubastatin A -0.272 | [1] -0.02 | encorafenib -0.076 | [3] -0.047 | [4] 0.303 | lapatinib -0.031 | tozasertib 0.071

TRIM16 (UniProt O95361)
inactive: [1] -0.052 | [2] 0 | encorafenib 0.037 | [3] -0.164 | duvelisib 0.08 | tozasertib 0.008

Quoted from the results shown (two entries):
TTBK2 (UniProt Q6IQ55)
inactive: [1] 0.094 | encorafenib 0.008 | [3] -0.118 | crizotinib -0.111 | tozasertib 0.091 | doramapimod 0.09

TTC7A isoform 4 (UniProt Q9ULT0)
inactive: alisertib 0.085 | gefitinib 0.043

Next part

TRMO (UniProt Q9BU70)
inactive: defactinib 0.011 | [2] -0.114 | encorafenib 0.058 | [3] -0.056 | pictilisib -0.18 | crizotinib -0.111 | duvelisib -0.112 | tozasertib -0.04 | doramapimod 0.05 | bafetinib -0.089

TRIM68 (UniProt Q6AZZ1)
inactive: [1] 0.121 | encorafenib -0.346 | [3] -0.005 | alisertib 0.065 | gefitinib -0.052 | crizotinib -0.322 | tozasertib 0.119 | doramapimod 0.289

TRAF5 isoform 2 (UniProt O00463)
inactive: Tubastatin A 0.373 | [1] 0.065 | encorafenib 0.093 | [3] -0.444 | tozasertib -0.065

TSPAN31 (UniProt Q12999)
inactive: defactinib -0.009 | [2] -0.013 | crizotinib 0.071 | duvelisib -0.114 | doramapimod -0.069

TTC17 isoform 2 (UniProt Q96AE7)
inactive: alvocidib 0.051 | [5] -0.635 | gandotinib 0.033 | [6] 0.271
